Reference: PubChem BioAssay AID504834 (National Center for Advancing Translational Sciences (NCATS), 2011)
Values joined by “and” are separate entries in the source; they are usually repeats but may differ in a detail not shown here. Equal values may be shown once. Screen size: about 320,000 compounds; about 22,000 (6.9%) were called active. Inconclusive results, whose numbers are uncertain, are shown with a selection of clear calls. Calls follow the shape of the dose curve; as a rule, active = well fitted inhibition curve with a large enough effect; inconclusive = small, poorly fitted or top-dose-only effect, or another doubt; inactive = no such curve, though single readings can be large or run the other way. Where the call is inconclusive, the potency comes from a doubtful curve fit.

experiment: Primary qHTS for delayed death inhibitors of the malarial parasite plastid, 96 hour incubation; details: P. falciparum luciferase reporter growth; series mostly up to 28.7 µM
Outline: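 Delayed-death screen, second-generation endpoint: infected erythrocytes, 2% hematocrit, 0.05% parasitemia final; 96 hours at 37 C, 5% CO2; luciferase detection reagent; luminescence decrease equals reduced growth.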
Potency is read from the fitted curve at half-maximal effect.

Structure (SMILES) | Potency
COc1ccc(Cl)cc1NC(=O)CSc1nnc(CNC(=O)c2ccco2)o1 | inconclusive: 13.1 µM [inhibitor, single point]
CCC(C)NC(=O)C1(NC(=O)Nc2ccccc2)CCCCC1 (configuration not stated) | inactive
Cc1cc(C(=O)Nc2sc3c(c2C#N)CCC(C)C3)cs1 (configuration not stated) | inconclusive: 18.5 µM [inhibitor, single point]
CC(=O)Nc1cc(NC(C)=O)cc(C(=O)N2CCCC3CCCCC32)c1 (configuration not stated) | inactive
NNC(=O)c1n[nH]c2c1CC(C1CCCCC1)CC2 (configuration not stated) | inconclusive: 9.28 µM [inhibitor, partial curve, poor fit]
O=C(CN(C(=O)CCC(=O)Nc1ccccn1)C1CCCC1)NCc1ccccc1 | inconclusive: 4.15 µM [inhibitor, full curve, poor fit]
O=C(c1ccccc1F)N1CCN(C(=O)C(c2ccccc2)c2ccccc2)CC1 | active: 0.294 µM
CCOC(=O)N1CCN(c2ccc(C(C)=O)cc2F)CC1 | inconclusive: 18.5 µM [inhibitor, single point]
Cc1cc(C)c2nc(SCC(=O)NCCN3C(=O)CSC3=O)cc(C)c2c1 | inactive
O=C1c2cccc3cccc(c23)C(=O)N1CC1CCN(CC(O)COCc2ccc3c(c2)OCO3)CC1 (configuration not stated) | inconclusive: 13.1 µM [inhibitor, partial curve, poor fit]
CCN(CC)P(=O)(Nc1ccccc1Br)c1ccc(N(C)C)cc1NC(=O)c1ccco1 (configuration not stated) | active: 9.28 µM
CC(=O)c1ccc(N(C)C)cc1 | inactive
Cc1ccc(N(CC(=O)Nc2cccc(Cl)c2C)S(C)(=O)=O)cc1 | inconclusive: 18.5 µM [inhibitor, single point]
O=C1NCCN(Cc2ccc(Cl)c(F)c2)C1CC(=O)N1CCc2ccccc2C1 (configuration not stated) | inactive
Cc1cc(C)n(-c2nnc(C)n2/N=C/c2ccco2)n1 | inconclusive: 11.7 µM [inhibitor, partial curve, poor fit]
O=C(COC(=O)C1CCN(S(=O)(=O)c2ccccc2C(F)(F)F)CC1)NCc1ccc(F)cc1 | inconclusive: 10.4 µM [inhibitor, partial curve, poor fit]
CCC1(C)CC(C(CC(=O)O)c2ccc(C)cc2)CCO1 (configuration not stated) | inconclusive: 1.17 µM [inhibitor, full curve, poor fit]
O=C(c1cccc(F)c1)N1CCCC(C(=O)N2CCCCC2)C1 (configuration not stated) | inconclusive: 18.5 µM [inhibitor, single point]
O=c1c2ccccc2nc(-c2ccc(Cl)cc2Cl)n1CCCn1ccnc1 | inconclusive: 0.0294 µM [inhibitor, full curve, poor fit]
O=C(c1ccc(N2CCOCC2)cc1)N1CCCC(Nc2ccccc2)C1 (configuration not stated) | inconclusive: 10.4 µM [inhibitor, single point]
CCCC1(CCC)NC(=O)N(CC(=O)Nc2ccccc2OC)C1=O | inconclusive: 9.28 µM [inhibitor, partial curve, poor fit]
CSc1ccc(-c2nc(CSCC(=O)NC3CC3)c(C)o2)cc1 | inactive
Cc1[nH]c(C)c(S(=O)(=O)NCc2ccccc2Cl)c1C(=O)N1CCCC1 | inconclusive: 20.8 µM [inhibitor, partial curve, poor fit]

Structure (SMILES) | Potency
Cc1cnc(NC(=O)COc2ccc3c(c2)CCC3)s1 | inconclusive: 18.5 µM [inhibitor, single point]
Cc1cc(C)c2c(c1)c1nnc(SCCN3CCCCC3)nc1n2C | inconclusive: 14.7 µM [inhibitor, single point]
CCOC(=O)c1sc(NC(=O)CSc2nnnn2-c2ccc(C)c(C)c2)nc1C | active: 2.33 µM
CCOCCn1c(SCc2cccc(C)c2)nc2c1c(=O)[nH]c(=O)n2C | inconclusive: 8.28 µM [inhibitor, single point]
Cc1nc2ccccc2n1S(=O)(=O)N(C)C | inconclusive: 3.7 µM [inhibitor, full curve, poor fit]
O=C(NCc1cccc(Cl)c1)c1cccc(S(=O)(=O)N2CCCC2)c1 | inconclusive: 14.7 µM [inhibitor, partial curve, poor fit]
O=C(NCc1nc2ccccc2[nH]1)C1=C[C@@H](c2ccc(Br)cc2)C[C@@H](OCc2ccc(CO)cc2)O1 | inconclusive: 4.65 µM [inhibitor, partial curve, poor fit]
CSc1ccc(S(=O)(=O)N2CCC(C(=O)NCc3ccco3)CC2)cc1 | inconclusive: 9.28 µM [inhibitor, partial curve, poor fit]
Cc1ccc(OCc2cc(C(=O)NCc3cnn(-c4cccc(F)c4)c3)no2)cn1 | inconclusive: 18.5 µM [inhibitor, single point]
CCN1C(=O)C2(C(C(=O)c3ccc(C)o3)=C(O)C(=O)N2CCCN2CCOCC2)c2ccccc21 (configuration not stated) | inconclusive: 4.15 µM [inhibitor, partial curve, poor fit]
Cc1ccc(C(=O)NCCCN2CCOCC2)cc1N1CCCC1=O | inactive
CCC(=O)N1CCc2cc(S(=O)(=O)NCCC(=O)NC3CCCCCC3)ccc21 | inconclusive: 18.5 µM [inhibitor, single point]
Cc1cc2ncc(-c3ccccc3)nc2cc1C | inactive
Nc1cc(=O)[nH]c(=O)n1-c1cccc(F)c1 | inactive
COc1ccc(-n2nc3c(N4CCC(C(=O)NCc5ccccc5C)CC4)nnc(C)c3c2C)cc1 | inconclusive: 10.4 µM [inhibitor, partial curve, poor fit] and inconclusive: 10.4 µM [inhibitor, single point]
CN(CC(=O)Nc1ccc(C#N)cc1)Cc1ccc(Cl)cc1 | inconclusive: 4.65 µM [inhibitor, partial curve, poor fit]
Cc1ccc(N(CC(=O)N2CCN(c3ccc(F)cc3)CC2)S(=O)(=O)c2c(C)noc2C)cc1 | inconclusive: 18.5 µM [inhibitor, single point]
CC1=CC2=NC(=O)/C(=C\c3cc(C)n(-c4ccc(F)cc4)c3C)C(=N)N2O1 | inconclusive: 1.85 µM [inhibitor, full curve, poor fit]
O=C(O)c1ccccc1SCc1csc(-c2ccccc2)n1 | inactive
O=C(NCCc1csc(-c2cccnc2)n1)c1ccco1 | inactive
COc1ccc(C(=O)Nc2ccc(NC(=O)C3CCCCC3)nc2)cc1 | inconclusive: 13.1 µM [inhibitor, single point]
Cc1ccc(NC2=C(Cl)C(=O)c3ccccc3C2=O)cc1 | inactive
Cc1cccc(NC(=S)N2CCC(NC(=O)c3cccc(F)c3)CC2)c1 | inconclusive: 13.1 µM [inhibitor, partial curve]

A run of entries from the list above:
Structure (SMILES) | Potency
O=C(NCc1nc2ccccc2[nH]1)C1=C[C@@H](c2ccc(Br)cc2)C[C@@H](OCc2ccc(CO)cc2)O1 | inconclusive: 4.65 µM [inhibitor, partial curve, poor fit]
CSc1ccc(S(=O)(=O)N2CCC(C(=O)NCc3ccco3)CC2)cc1 | inconclusive: 9.28 µM [inhibitor, partial curve, poor fit]

More entries

Structure (SMILES) | Potency
O=C(CSc1nnc(NC(=O)c2ccccc2Cl)s1)NC1CC1 | inconclusive: 20.8 µM [inhibitor, single point]
CCOC(=O)[C@H]1[C@H]2COc3ccccc3[C@@H]2N2C(=O)c3ccc(C)cc3NC(=O)[C@@]12C | inconclusive: 18.5 µM [inhibitor, single point]
COc1ccc(NC(=O)CCC(=O)N/N=C/c2ccc([N+](=O)[O-])s2)cc1 | inconclusive: 18.5 µM [inhibitor, single point]
Clc1ccc(-c2ccc(C=Nc3ccc(N4CCOCC4)cc3)o2)c(Cl)c1 | inactive
O=C(COc1ccc(Cl)cc1Cl)N/N=C/C1CC=CCC1 (configuration not stated) | inconclusive: 9.28 µM [inhibitor, partial curve, poor fit]
CCc1cc(=O)oc2c(C)c(OCC(=O)N3CCC(C(=O)O)CC3)ccc12 | inactive
C=CCn1c(CNC(=O)c2ccco2)nnc1SCC(=O)c1ccc(OC)cc1 | inconclusive: 18.5 µM [inhibitor, single point]
Clc1cnc(N/N=C/c2cccs2)c(Cl)c1 | inconclusive: 16.5 µM [inhibitor, single point]
Cc1ccc(-n2c(SCC(=O)NCCN3C(=O)CSC3=O)nnc2-c2ccccc2)cc1C | inconclusive: 13.1 µM [inhibitor, single point]
O=C(NCC(=O)N(Cc1ccccc1)C(C(=O)NC1CCCC1)c1ccco1)c1ccco1 (configuration not stated) | active: 5.22 µM
O=C(NC1CC1)c1ccc2c(c1)N(Cc1ccccc1)CCS2 | active: 11.7 µM
CNc1nc2ccccc2n(C)c1=O | inconclusive: 0.117 µM [inhibitor, full curve, poor fit]
COC(=O)c1ccc2nc(-c3cccc(N)c3)cn2c1 | inactive
CC1(C)O[C@H]2C[C@@H]3[C@H]4CCC5=CC(=O)CC[C@@]5(C)[C@]4(F)[C@@H](O)C[C@@]3(C)[C@@]2(C(=O)CCl)O1 | active: 4.05 µM
COc1cccc(CNC(=O)Cn2ncc3c(=O)oc4ccccc4c32)c1 | inactive
O=C(/C=C/c1ccc(OCCCF)cc1)NCc1ccc(Cl)cc1 | inconclusive: 0.0657 µM [inhibitor, full curve, poor fit]
COCc1c(C(=O)N/N=C/c2cccc3ccccc23)nnn1-c1nonc1N | inconclusive: 20.8 µM [inhibitor, partial curve, poor fit]
O=C(O)CCN(CCC(=O)O)S(=O)(=O)c1ccccc1 | inconclusive: 13.1 µM [inhibitor, partial curve, poor fit]
Cc1cc(CN(C)C(=O)c2cc(COc3ccc(C)c(C)c3)on2)on1 | inactive
CCCNC(=O)c1onc(CSc2ccc(F)cc2)c1C(=O)NCCOC | inconclusive: 10.4 µM [inhibitor, single point]
CC(NS(=O)(=O)c1ccc(Cl)cc1)C(c1cccs1)N1CCN(C)CC1 (configuration not stated) | inconclusive: 13.1 µM [inhibitor, single point]

Retrieved by structure from the list above:
Structure (SMILES) | Potency
Cc1cc(CN(C)C(=O)c2cc(COc3ccc(C)c(C)c3)on2)on1 | inactive
COc1cccc(CNC(=O)Cn2ncc3c(=O)oc4ccccc4c32)c1 | inactive
